Measured values as given in article PMC5027585, “TSPO ligands stimulate ZnPPIX transport and ROS accumulation leading to the inhibition of P. falciparum growth in human blood” (Scientific Reports, 2016).

Biological target: Voltage Dependent Anion Channel (VDAC) (human (endogenous in red blood cells))
Assay: native gel or EMSA; two-dimensional native (3-12% gradient) then 12% SDS-PAGE of ghosts solubilised in 1% dodecylmaltoside, immunoblot

B1: TranSlocator PrOtein 2 (TSPO2) (natural protein, human (endogenous in red blood cells), UniProt Q5TGU0 1-170, looked up)
chain: MRLQGAIFVLLPHLGPILVWLFTRDHMSGWCEGPRMLSWCPFYKVLLLVQTAIYSVVGYASYLVWKDLGGGLGWPLALPLGLYAVQLTISWTVLVLFFTVHNPGLALLHLLLLYGLVVSTALIWHPINKLAALLLLPYLAWLTVTSALTYHLWRDSLCPVHQPQPTEKSD
notes: TSPO2, human, second TSPO isoform, endogenous in mature red blood cells; detected with a rabbit antibody against the 13 C-terminal residues of hTSPO2; also called hTSPO2; source: endogenous, human red blood cell membranes (ghosts) or Triton X-100 lysate of healthy and P. falciparum-infected RBCs
Question: How did the binding turn out when B1 was run?
Answer: binds

These are yes or no findings as the source states them, for the method shown. Binding calls can cover weak binding; strength is not graded here.
